Reference: PubChem BioAssay AID1487 (National Center for Advancing Translational Sciences (NCATS), 2009)
Out of some 200,000 compounds screened, about 25 (0.01%) were called active. Inconclusive means that the source gave no clear call. Such entries were picked first, then a sample of the others. Calls come from the whole dose curve; as a rule, active = well fitted inhibition curve with a large enough effect in the signal ratio, with a control signal flat (not every such curve was filed as active); inconclusive = small, poorly fitted or top-dose-only effect, or effect the other way, or a change in a side signal; inactive = flat fitted curve, though single readings scatter; the % refers to the signal ratio. Where the call is inconclusive, the potency comes from a doubtful curve fit.

Test: qHTS Assay for Modulators of Lamin A Splicing
Conditions: HeLa LMNA splicing GFP/RFP minigene ratio, 48 h; ratio change, negative = inhibition: at 46.1 µM (top of the series) unless noted
In short: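 S3 HeLa stable clones carrying a lamin A-EGFP splicing minigene plus DsRed2 were seeded at 600 cells/well in Opti-MEM with 2% FBS, pin-dosed and incubated 48 h at 37°C. Acumen cytometry (488 nm) gave the GFP/RFP total-intensity ratio.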
% is set by controls: 0 for no effect and ±100 for the full control effect; potency is the fitted concentration of half-maximal effect.

Row | SMILES | ratio change, negative = inhibition | Potency
1 | CCOC(=O)Nc1nnc(Cc2ccc(Cl)c(Cl)c2)s1 | inconclusive: -9.25% [at 46 µM] | 
2 | COc1cc(CN2CCN(C(=O)CC(C)C)CC2)cc(OC)c1OC | inactive | 
3 | O=C(/C=C/c1cccc([N+](=O)[O-])c1)NCCN1C(=O)S/C(=C\c2cccnc2)C1=O | inconclusive: -41.4% [at 46 µM] | 
4 | COc1ccc(C2(CNS(=O)(=O)c3ccccc3)CCOCC2)cc1 | inconclusive: 27.3% [at 46 µM] | 
5 | Cc1ccc(-c2nnn(CC(=O)N(CC(=O)NCC3CCCO3)c3ccc(F)c(Cl)c3)n2)o1 (stereo not drawn) | inconclusive: 5.47% | 
6 | COc1ccc(S(=O)(=O)NCC2CCCN(C(=O)c3sccc3C)C2)cc1 (stereo not drawn) | inconclusive: 5.2% [at 46 µM] | 
7 | CCOc1ccc(-n2cnnn2)cc1S(=O)(=O)Nc1c(C)cccc1C | inactive | 
8 | CC1CCN(c2csc3ccc(F)cc3c2=O)CC1 | inconclusive: 6.06% [at 46 µM] | 
9 | CN(CC(=O)Nc1ccc(S(=O)(=O)N2CCCC2)cc1)Cc1ccc(Cl)cc1Cl | inconclusive: -30.7% | 
10 | CCOC(=O)N/N=C/c1ccc(Oc2ccccc2)cc1 | inconclusive: -10.7% [at 46 µM] | 
11 | CCOc1c(S(=O)(=O)NC2CC(C)(C)NC(C)(C)C2)ccc(Cl)c1Cl | inconclusive: -37.2% [at 46 µM] | 
12 | CC(C)c1ccc2c(c1)[C@H]1OCC[C@H]1[C@@H](c1cccs1)N2 | inconclusive: -48.6% | 
13 | CSc1ccccc1NC(=O)c1cc(C)on1 | inactive | 
14 | O=C(CN1CCOc2ccccc21)NCc1ccc(Cl)cc1 | inactive | 
15 | CC1CN(CC(O)COC(c2ccc(Cl)cc2)c2ccc(Cl)cc2)CC(C)O1 (stereo not drawn) | inconclusive: -31.7% | 
16 | Cc1cc(C)cc(NC2=NCC(=O)N2Cc2ccccc2)c1 | inactive | 
17 | COc1cc(OC)c(C(=O)N2CCCC2)cc1OC | inconclusive: -2.37% [at 46 µM] | 
18 | COc1ccc(C2N=C(c3ccccc3)C(C)(C)N2O)cc1OC (stereo not drawn) | inconclusive: 13% | 
19 | CCC(OC(=O)C1=Cc2ccccc2OC1)C(=O)NCc1ccco1 (stereo not drawn) | inconclusive: -3.07% [at 46 µM] | 
20 | O=C(Nc1ccc(O)cc1C(=O)O)c1ccc2c(c1)C(=O)N(Cc1ccco1)C2=O | inactive | 
21 | COc1ccc(C2CC(=O)c3cnn(-c4nc(C)cc(C)n4)c3C2)cc1 (stereo not drawn) | inconclusive: 10.3% [at 46 µM] | 
22 | CC(C)c1ccc(NC(=O)CSC2=Nc3ccccc3C3=NC(CCC(=O)NCc4ccc(F)cc4)C(=O)N23)cc1 (stereo not drawn) | inconclusive: -1.95% [at 46 µM] | 
23 | COc1cccc(C(NC(=O)c2ccccc2F)NC(=O)c2ccccc2F)c1 | inconclusive: -12.9% | 
24 | NCCCCC(N)C(=O)NC(Cc1ccc(O)cc1)C(=O)NC(CCCCN)C(=O)O (stereo not drawn) | inactive | 
25 | NC(=O)CSc1ccc(F)cc1 | inconclusive: 26.7% [at 46 µM] | 
26 | Cc1[nH]c2ccc(F)cc2c1CCN(Cc1ccncc1)C(=S)Nc1ccccc1 | inconclusive: 3.28% [at 9.22 µM] | 
27 | COc1ccc(N(CC(=O)Nc2ccc(F)c(Cl)c2)S(=O)(=O)c2c(C)noc2C)cc1 | inconclusive: -31.9% | 

3 entries out of the list, ordered by molar mass, smallest number first.
Row | SMILES | ratio change, negative = inhibition | Potency
4 | COc1ccc(C2(CNS(=O)(=O)c3ccccc3)CCOCC2)cc1 | inconclusive: 27.3% [at 46 µM] | 
11 | CCOc1c(S(=O)(=O)NC2CC(C)(C)NC(C)(C)C2)ccc(Cl)c1Cl | inconclusive: -37.2% [at 46 µM] | 
5 | Cc1ccc(-c2nnn(CC(=O)N(CC(=O)NCC3CCCO3)c3ccc(F)c(Cl)c3)n2)o1 (stereo not drawn) | inconclusive: 5.47% | 

Remaining list, next part

Row | SMILES | ratio change, negative = inhibition | Potency
28 | CCOC(=O)CCCCC(=O)c1[nH]c(=O)[nH]c1CSCCO | inactive | 
29 | c1ccc(CSc2nnc(C3CCNCC3)o2)cc1 | inconclusive: 11.4% [at 46 µM] | 
30 | COc1ccc(Oc2nc3ccccc3n(C)c2=O)cc1 | inactive | 
31 | CCc1c(C(=O)NCc2ccccc2Cl)[nH]c(C)c1C(C)=O | inconclusive: -17.1% | 
32 | COc1ccc(-c2nnc(-c3cc(OC)c(OC)c(OC)c3)o2)cc1OC | inconclusive: -35.1% | 
33 | Cn1cc(C(=O)CCl)c2ccccc21 |  | inconclusive: 35.5 µM [cytotoxic, single point]
34 | CC(C)=CCCC1=CCC2C(=O)NNC(=O)C2C1 (stereo not drawn) | inconclusive: 11.7% [at 46 µM] | 
35 | CCN(CC)CCCNC(=O)CN1C(=O)CSc2ccc(S(=O)(=O)N3CCOCC3)cc21 | inactive | 
36 | COc1ccccc1NC(=O)CSc1nc2nc(C)cc(C)c2c(=O)[nH]1 | inconclusive: -30.9% | 
37 | CCc1ccc2c(c1)[C@H]1OCC[C@H]1[C@@H](c1cccs1)N2 | inconclusive: -47.2% | 
38 | COc1cc(OC)c(OC)cc1CN1CCc2nc(N3CCN(c4ccccc4F)CC3)ncc2C1 | inconclusive: -16.9% [at 46 µM] | 
39 | COc1ccc(C)cc1S(=O)(=O)NCC(c1ccc(N(C)C)cc1)N1CCc2ccccc21 (stereo not drawn) | inconclusive: -27.5% [at 46 µM] | 
40 | CCc1nc2ccccc2c(=O)n1NC(=O)c1c(O)c2ccccc2n(CC)c1=O | inconclusive: -13% [at 46 µM] | 
41 | O=C(Nc1ccc(S(=O)(=O)NCc2cccnc2)cc1)c1ccccc1Cl |  | inconclusive: 8.91 µM [falling, partial curve]
42 | c1ccc2oc(C3=NNC(=NC4CC4)SC3)cc2c1 | inactive | 
43 | CC(C)Oc1ccc(C(=O)Nc2ccc(-c3nc4ccccc4s3)cc2)cc1 | inconclusive: 17.8% [at 46 µM] | 
44 | N#CC(C#N)=NNc1ccc(S(=O)(=O)N2CCCC2)cc1 | inconclusive: 7.74% | 
45 | Cc1cc(C)c(-n2c(C)cc(/C=C3/NC(=O)NC3=O)c2C)c(C)c1 |  | inconclusive: 22.4 µM [rising, partial curve, poor fit]
46 | Cc1cc(Cl)c(S(=O)(=O)N2CCSCC2)cc1OCC(=O)NC1CCCCC1 |  | inconclusive: 2.82 µM [fluorescent, full curve]
47 | CCN1CCC(N(Cc2ccc(F)cc2)C(=O)Nc2cccc(C(F)(F)F)c2)CC1 | inactive | 
48 | O=C(CC1SCCNC1=O)Nc1ccc(Cl)cc1 (stereo not drawn) | inconclusive: 3.62% [at 46 µM] | 
49 | Cc1ccc(-c2cc(C(=O)N3CCCC3)no2)cc1 | inactive | 
50 | C/C(=N\N=C(/N)SC1CC(=O)N(c2ccc(Cl)cc2)C1=O)c1cccs1 (stereo not drawn) | inactive | 
51 | O=[N+]([O-])c1ccc(COc2ccc(Br)cc2CN2CCOCC2)cc1 | inconclusive: -34% [at 46 µM] | 
52 | CC(C)CC(=O)NC(=S)Nc1ccc(NC(=O)c2ccco2)cc1 | inactive | 
53 | O=C(CSc1nc2ccccc2nc1Cc1ccccc1)N1CCN(c2ccccc2)CC1 | inconclusive: -0.9% [at 46 µM] | 
